Some of the results follow.
Molecular target: OsWRKY34 (Oryza sativa, UniProt Q0JBA9 1-250)
Assay: protein-binding microarray (RPBM); PBS, 2% BSA, 51.3 ng/ul salmon testes DNA, 50 uM zinc acetate, 200 nM TF, 25 C, 1 h; high values mean tight binding
Details: protein: recombinant; tags: N-terminal polyhistidine and DsRed monomer fusion (pET32a); label: CyDye5-dUTP incorporated in the synthesized complementary strand; 3' TTTTT single-stranded linker to array surface; dsDNA, one strand shown
Outline: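 An Axon 4000B scanner gave the binding signal as per-feature fluorescence intensity in arbitrary units. This followed washing of a custom Agilent array that had been incubated for 1 h at 25 °C with 200 nM protein in PBS, 2% BSA, salmon testes DNA and 50 µM zinc acetate. The proteins were transcription factors fused at the N-terminus to polyhistidine and DsRed, expressed in E. coli BL21-CodonPlus and purified on Ni–NTA.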

Chains of the proteins cited; added tags and fusions are not shown.
UniProt Q0JBA9, entry or part of it: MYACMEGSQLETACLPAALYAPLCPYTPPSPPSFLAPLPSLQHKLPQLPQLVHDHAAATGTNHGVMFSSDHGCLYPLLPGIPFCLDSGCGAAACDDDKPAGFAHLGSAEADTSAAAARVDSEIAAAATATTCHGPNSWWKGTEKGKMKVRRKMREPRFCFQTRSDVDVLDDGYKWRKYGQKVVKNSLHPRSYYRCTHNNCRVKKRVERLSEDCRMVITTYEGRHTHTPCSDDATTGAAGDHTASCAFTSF

Point of comparison: “CGGTCATTAATCCCACTCATTTCCATGGTCATAAGATACGCGGAGTCACCTAGTGCAG”, binding signal 9410 fluorescence intensity (a.u.). Against it:
- ACCCTGAGCCGTTCACGTTTCCCATCCCATTCTCATCATCCGGAGTCACCTAGTGCAG — higher, 9720 fluorescence intensity (a.u.)
- CACGCTGTCCGGTCTCTCTTTCTATCTTGTGTTGACTCTGCGGAGTCACCTAGTGCAG — higher, 14900 fluorescence intensity (a.u.)
- GCAACACTAGACTTCCTATTTTCGGATGATCGGATCACCTCGGAGTCACCTAGTGCAG — lower, 8120 fluorescence intensity (a.u.)
- TTCAAATTGTTGCTGCTCTGTGCTAGCCTTTTCATATTGACGGAGTCACCTAGTGCAG — lower, 9110 fluorescence intensity (a.u.)
- CGTCGGCGGCGGCATCGCCGGTTGGCTGGGGTTGGAGAAGCGGAGTCACCTAGTGCAG — higher, 9830 fluorescence intensity (a.u.)
- CTATGTTCATCCTCGTGTCATATTGTGTTCATCTTCATACCGGAGTCACCTAGTGCAG — higher, 11600 fluorescence intensity (a.u.)
- ATATCTTACTTTACAGTATACAACATCTGCTTGCAACATGCGGAGTCACCTAGTGCAG — lower, 8090 fluorescence intensity (a.u.)
- CGTCTCCTGGTGTCTGGAATTGGGCGGCGGCGGCGGGATGCGGAGTCACCTAGTGCAG — higher, 11800 fluorescence intensity (a.u.)
- GTGGTCGTCGCTGATAGCGAGGTGGGTAGGGTTAATTTTGCGGAGTCACCTAGTGCAG — higher, 11000 fluorescence intensity (a.u.)
- GATCGAGTCATACACATTTGACCAACCAAAGCCTTAGACTCGGAGTCACCTAGTGCAG — higher, 9780 fluorescence intensity (a.u.)
- TTAACATATTTAGTGCTACTCTTTTCACTTTATTTAACTACGGAGTCACCTAGTGCAG — higher, 9470 fluorescence intensity (a.u.)
- TAGTATTTCTCTGATCTATTACTTCATGATCGGCTACATCCGGAGTCACCTAGTGCAG — lower, 8060 fluorescence intensity (a.u.)
- CGTGGGTAATTTGGTTCCTCTTCTTTTTTTGGCTTCCTTTCGGAGTCACCTAGTGCAG — lower, 8440 fluorescence intensity (a.u.)
- TCAATGTGGTTGGGTGTGGTACTAGCTATAGCTGCATCCACGGAGTCACCTAGTGCAG — lower, 8560 fluorescence intensity (a.u.)
- AGGAGGTGGTGGGTGGTGGTGGCTGCGGCTTGGCGCGATGCGGAGTCACCTAGTGCAG — lower, 9400 fluorescence intensity (a.u.)
- CCCACCACACCAAGATGCCACCTTTTTTTCCCTTTTCTTTCGGAGTCACCTAGTGCAG — higher, 10400 fluorescence intensity (a.u.)
- GTTTTACATTTGTCCTAAATCAAACATATCTATCTTTGACCGGAGTCACCTAGTGCAG — lower, 8180 fluorescence intensity (a.u.)
- CCGCCTCGACGACTTCTCGACCGACACCATCCTCGAGCTCCGGAGTCACCTAGTGCAG — higher, 14600 fluorescence intensity (a.u.)
- CTGGTTGGTAGGTACTTGCTTGATTAGATTGGGTTTGGTTCGGAGTCACCTAGTGCAG — higher, 11500 fluorescence intensity (a.u.)
- CCGCACGCCCACACCGCATCCGCATCTCCCGATTCCTCGTCGGAGTCACCTAGTGCAG — lower, 8140 fluorescence intensity (a.u.)
- ACTTCATTTCCCACTCCTAAGTCCTAACCCTGATACTCGCCGGAGTCACCTAGTGCAG — lower, 8520 fluorescence intensity (a.u.)
- CTGACCCTTGTTTAAATTTCGTACTTGGACAATTGACATTCGGAGTCACCTAGTGCAG — lower, 8420 fluorescence intensity (a.u.)
- ATACGCCTTTTAAAATATCGTCATTGAGCTTAACCTTTCTCGGAGTCACCTAGTGCAG — higher, 10300 fluorescence intensity (a.u.)
- TGCCATCTGTACACCTTTTTTTTTTCGAACAACTGACTTTCGGAGTCACCTAGTGCAG — lower, 8820 fluorescence intensity (a.u.)
- CTCGCACGGTGGCATCGCCAAGCTTTGACTTATCTCCTAGCGGAGTCACCTAGTGCAG — lower, 8130 fluorescence intensity (a.u.)
- ATAAAATCTTGCTGTCCTGGCTTTTTTTTTTCTTTCATTTCGGAGTCACCTAGTGCAG — lower, 8840 fluorescence intensity (a.u.)
- CCGCCTGCCGCCGTCCGTCCGCCAACCGCATGCCGTCCCCCGGAGTCACCTAGTGCAG — lower, 8950 fluorescence intensity (a.u.)
- TTCCCGACCGTACCGATACCGTTTCCGCAAAACTAATATACGGAGTCACCTAGTGCAG — lower, 9080 fluorescence intensity (a.u.)
- CATTTCTCTTTCCCATTTGCCGAACACTACCTAAAATCTTCGGAGTCACCTAGTGCAG — lower, 8760 fluorescence intensity (a.u.)
- AGGAAGCCTTTTGCCGTCGTGTTCTTCCATCCTCTGCGGCCGGAGTCACCTAGTGCAG — lower, 8660 fluorescence intensity (a.u.)
- CCGCCGCCTTTCTCGAACCTCCGCCGCATTCTTGTCACCTCGGAGTCACCTAGTGCAG — higher, 10300 fluorescence intensity (a.u.)
- CGTCGATGAAACCCTTTTTTCCTTTCTCAGTTTCTTTCCTCGGAGTCACCTAGTGCAG — lower, 8350 fluorescence intensity (a.u.)
- TATTATTTGCATTATCGCCTTAACCCCACATATATCCATACGGAGTCACCTAGTGCAG — lower, 8690 fluorescence intensity (a.u.)
- GAACCGGCACCTTTAACCATGCTAGAGCCAGCACCTATAACGGAGTCACCTAGTGCAG — lower, 8740 fluorescence intensity (a.u.)
- GGGCTGAATTTATTCTTGTTTTAGTGACATTCAATATGCTCGGAGTCACCTAGTGCAG — lower, 8230 fluorescence intensity (a.u.)
- GTCTCTTCCTTTCATGTCTTGTATGTTATCCAAACAATATCGGAGTCACCTAGTGCAG — higher, 10300 fluorescence intensity (a.u.)
- GGCTCCACCGTCTCCACCGCCACCACCGTCTCCACCACCACGGAGTCACCTAGTGCAG — higher, 11100 fluorescence intensity (a.u.)
- TGGCAAAATCGGTTAGTCGTCCTTATTCTTATTCCACGGTCGGAGTCACCTAGTGCAG — higher, 9990 fluorescence intensity (a.u.)
- CCACTACTTATTCAATCACAACCCTTCACTACTCATTTCTCGGAGTCACCTAGTGCAG — higher, 10400 fluorescence intensity (a.u.)
- CCAGCCACCAGCTCGATCCTTTCTTCCTCGTTCTCGCGATCGGAGTCACCTAGTGCAG — lower, 8050 fluorescence intensity (a.u.)
- ACCGATCGTACGTCTCCTCAGCTCATCCGCTTGCCTCGTCCGGAGTCACCTAGTGCAG — higher, 11700 fluorescence intensity (a.u.)
- AAGGGTGTGTTAGAGAGAGATGGAGATGTGCATGGATGACCGGAGTCACCTAGTGCAG — lower, 8130 fluorescence intensity (a.u.)
- CAGCCACACGCATGCGCACTTCTCCCACTCTCTCTCTCTCCGGAGTCACCTAGTGCAG — lower, 8100 fluorescence intensity (a.u.)
- GCCGGCGCTCTCGCAGTTGCCGCCGCCGCCGCCGCGAACGCGGAGTCACCTAGTGCAG — lower, 8820 fluorescence intensity (a.u.)
- TTTGCCATTGTTCATTGGTTTTCTCTCGTATCTCTAAGACCGGAGTCACCTAGTGCAG — lower, 9360 fluorescence intensity (a.u.)
- GCAGCGAGTGCTCTGTCTTTGCCCATCGCCTGACGCCGCACGGAGTCACCTAGTGCAG — lower, 8560 fluorescence intensity (a.u.)
- TTGAGGGGAGGGTAGTAGTAGCTAAGTTAGGGCAAAGATGCGGAGTCACCTAGTGCAG — higher, 12600 fluorescence intensity (a.u.)
- CGGGTCAATGCTGAGATAAGGTCCGGTGCTGAGTGGCGCACGGAGTCACCTAGTGCAG — lower, 8680 fluorescence intensity (a.u.)
- GAGTCCGCCTCCACCTCCACCTCTGCTTCAGCCACAGATGCGGAGTCACCTAGTGCAG — lower, 8080 fluorescence intensity (a.u.)
- CCAAAACGCAGAACTCGTTTCCCGTCTCGTCCGCATCGATCGGAGTCACCTAGTGCAG — lower, 8120 fluorescence intensity (a.u.)
- TGTTCGACATGTTGCGCATATTTGATCTGTTCATGTTTTACGGAGTCACCTAGTGCAG — higher, 10100 fluorescence intensity (a.u.)
- GGCCCACCGTCGCACTCGCGCCTTCCGCTGCTCCGTTGCCCGGAGTCACCTAGTGCAG — lower, 8880 fluorescence intensity (a.u.)
- CTCCTTTTCAATTTCGCTTTTCTTTCATACGGAATTCCTTCGGAGTCACCTAGTGCAG — lower, 8330 fluorescence intensity (a.u.)
